Reference: PubChem BioAssay AID248 (DTP/NCI, 2004)
The list does not hold the whole screen: it is rich in T/C values a quarter to a half above the control, in often repeated tests (any T/C) and in doses without a T/C. Other doses and runs of a compound stand elsewhere. T/C is the treated group as % of the vehicle group. Some doses have a count of surviving animals in place of a T/C: the source files T/C as zero there, which appears to mark a toxic dose or a test without result, not a measured value. Some doses without a T/C left all or most animals alive at the check, yet need not have been tolerated: survival well below the control is almost never listed, so the zero probably covers shortened survival too. Survivors were counted at the toxicity check, usually on the fifth day, unless a day is given; later deaths do not show. Schedules are NCI's codes, read here as Q, the interval in days (D) or hours (H), X, the number of doses. Some schedule codes hold Z or #, which are not explained here. Some entries hold several experiments; the values are given in rising order. Where survival is the endpoint, this PubChem deposit counts one and a half times the control or more as active, and values a quarter to a half above the control carry no call in these data; other NCI protocols may use other cut-offs. Some T/C values are followed by the survivors on the day toxicity was checked, most often the fifth; without a count, all were alive then.

Test system: L1210 leukemia ip in BDF1 mice, survival T/C
Assay: NCI In Vivo Anticancer Drug Screen. Data for tumor model L1210 Leukemia (intraperitoneal) in B6D2F1 (BDF1) mice
Details: T/C endpoint: mean survival time, higher T/C = longer survival
[1] = dose: 200.0 mg/kg/injection, schedule: Q01DX001 (ip), vehicle: Klucel (hydroxypropylcellulose) (HPC)
[2] = dose: 400.0 mg/kg/injection, schedule: Q01DX001 (ip), vehicle: Klucel (hydroxypropylcellulose) (HPC)
[3] = dose: 250.0 mg/kg/injection, schedule: Q01DX Z (ip), vehicle: carboxymethylcellulose (CMC)
[4] = dose: 400.0 mg/kg/injection, schedule: Q04DX003 (ip), vehicle: saline
[5] = dose: 400.0 mg/kg/injection, schedule: Q01DX009 (ip), vehicle: Klucel (hydroxypropylcellulose) (HPC)
[6] = dose: 6.25 mg/kg/injection, schedule: Q01DX009 (ip), vehicle: saline
[7] = dose: 12.5 mg/kg/injection, schedule: Q01DX009 (ip), vehicle: saline
[8] = dose: 50.0 mg/kg/injection, schedule: Q01DX009 (ip), vehicle: saline
[9] = dose: 200.0 mg/kg/injection, schedule: Q01DX009 (ip), vehicle: Klucel (hydroxypropylcellulose) (HPC)
[10] = dose: 32.0 mg/kg/injection, schedule: Q01DX015 (ip), vehicle: carboxymethylcellulose (CMC)
[11] = dose: 400.0 mg/kg/injection, schedule: Q04DX002 (ip), vehicle: Klucel (hydroxypropylcellulose) (HPC)

CN(CCCl)Cc1ccc(OCc2ccccc2)c(OCc2ccccc2)c1
survivor count (dose: 100.0 mg/kg/injection, schedule: Q01DX001 (ip), vehicle: Klucel (hydroxypropylcellulose) (HPC)): 5 of 6
survivor count [1]: 2 of 6
survivor count [2]: 0 of 6

NC(=O)N(Cc1ccccc1)N=O
survivor count (dose: 200.0 mg/kg/injection, schedule: Q01DX Z (ip), vehicle: carboxymethylcellulose (CMC)): 6 of 6
survivor count [3]: 3 of 6
survivor count (dose: 300.0 mg/kg/injection, schedule: Q01DX Z (ip), vehicle: carboxymethylcellulose (CMC)): 0 of 6

c1ccc(CN2CCNCC2)cc1
survivor count (dose: 100.0 mg/kg/injection, schedule: Q04DX003 (ip), vehicle: saline): 2 of 6
survivor count (dose: 200.0 mg/kg/injection, schedule: Q04DX003 (ip), vehicle: saline): 0 of 6
survivor count [4]: 0 of 6

BrCC1(c2ccccc2)OCCO1
survivor count [5]: 0 of 6

CCCC[As](=O)(O)C(C)C
T/C (dose: 3.12 mg/kg/injection, schedule: Q01DX009 (ip), vehicle: saline): 129 % of control
T/C [6]: 110, 111, 122 % of control [2 of 3 alive]
survivor count [6]: 1 of 3
T/C [7]: 105, 110, 114 % of control [2 of 3 alive]
survivor count [7]: 1 of 3
survivor count (dose: 25.0 mg/kg/injection, schedule: Q01DX009 (ip), vehicle: saline): 1 of 3
T/C (dose: 25.0 mg/kg/injection, schedule: Q04DX002 (ip), vehicle: saline): 125 % of control
survivor count [8]: 0 of 3
survivor count (dose: 100.0 mg/kg/injection, schedule: Q01DX001 (ip), vehicle: saline): 3 of 6
survivor count (dose: 100.0 mg/kg/injection, schedule: Q01DX009 (ip), vehicle: saline): 0 of 3 and 0 of 6
survivor count (dose: 200.0 mg/kg/injection, schedule: Q01DX009 (ip), vehicle: saline): 0 of 6
survivor count (dose: 400.0 mg/kg/injection, schedule: Q01DX009 (ip), vehicle: saline): 0 of 6

CC1=CC(=C(c2ccccc2)c2ccccc2)C=C(C)C1=O
survivor count [9]: 5 of 6
survivor count [5]: 2 of 6

Cc1c2ccccc2cc2cc[n+]3ccccc3c12
T/C [10]: 141 % of control
survivor count [10]: 2 of 6
survivor count (dose: 64.0 mg/kg/injection, schedule: Q01DX015 (ip), vehicle: carboxymethylcellulose (CMC)): 0 of 6
survivor count (dose: 80.0 mg/kg/injection, schedule: Q01DX001 (ip), vehicle: carboxymethylcellulose (CMC)): 1 of 4
survivor count (dose: 80.0 mg/kg/injection, schedule: Q04DX003 (ip), vehicle: Klucel (hydroxypropylcellulose) (HPC)): 3 of 6
survivor count (dose: 128.0 mg/kg/injection, schedule: Q01DX015 (ip), vehicle: carboxymethylcellulose (CMC)): 0 of 6

C=COCCCCCCCCCCCC(CCCCCC)OC=C (stereo not drawn)
survivor count [11]: 3 of 3

Cc1ccc(NC(=O)Nc2onc(C)c2C)c([N+](=O)[O-])c1
survivor count (dose: 200.0 mg/kg/injection, schedule: Q04DX003 (ip), vehicle: Klucel (hydroxypropylcellulose) (HPC)): 5 of 6
survivor count (dose: 400.0 mg/kg/injection, schedule: Q04DX003 (ip), vehicle: Klucel (hydroxypropylcellulose) (HPC)): 6 of 6

CC(C)(C)c1cc(N)cc(C(C)(C)C)c1O
survivor count (dose: 100.0 mg/kg/injection, schedule: Q04DX002 (ip), vehicle: saline with Tween-80): 3 of 3

CCCC(=O)Nc1cccc2ccccc12
survivor count [11]: 0 of 3

CCCCN1C(=O)C(c2ccccc2)C2(CCN(C)CC2)C1=O (stereo not drawn)
survivor count [1]: 3 of 6
survivor count [2]: 0 of 6

CCCCC1=Cc2cc3c(cc2C1N(C)C)OCO3 (stereo not drawn)
survivor count (dose: 50.0 mg/kg/injection, schedule: Q04DX002 (ip), vehicle: Klucel (hydroxypropylcellulose) (HPC)): 3 of 3

COc1cc(NS(C)(=O)=O)ccc1Nc1c2ccc([N+](=O)[O-])cc2nc2c(C)cccc12
T/C (dose: 0.25 mg/kg/injection, schedule: Q01DX009 (ip), vehicle: saline): 137 % of control
T/C (dose: 0.5 mg/kg/injection, schedule: Q01DX009 (ip), vehicle: saline): 143 % of control
T/C (dose: 2.5 mg/kg/injection, schedule: Q01DX009 (ip), vehicle: saline): 138 % of control
T/C (dose: 2.5 mg/kg/injection, schedule: Q01DX009 (sc), vehicle: saline): 139 % of control [9 of 10 alive]
T/C (dose: 2.8 mg/kg/injection, schedule: Q04DX003 (ip), vehicle: saline): 139 % of control
T/C (dose: 3.75 mg/kg/injection, schedule: Q04DX003 (ip), vehicle: saline): 144 % of control
T/C (dose: 5.0 mg/kg/injection, schedule: Q01DX009 (ip), vehicle: saline): 127 % of control
T/C (dose: 6.5 mg/kg/injection, schedule: Q01DX001 (ip), vehicle: other): 129 % of control
T/C (dose: 10.0 mg/kg/injection, schedule: Q01DX001 (ip), vehicle: other): 125 % of control
survivor count (dose: 10.0 mg/kg/injection, schedule: Q01DX009 (ip), vehicle: saline): 6 of 6
T/C (dose: 10.0 mg/kg/injection, schedule: Q01DX009 (sc), vehicle: saline): 147 % of control
survivor count (dose: 20.0 mg/kg/injection, schedule: Q01DX009 (sc), vehicle: saline): 10 of 10
T/C (dose: 22.0 mg/kg/injection, schedule: Q01DX001 (ip), vehicle: other): 136 % of control
survivor count (dose: 33.0 mg/kg/injection, schedule: Q01DX009 (ip), vehicle: saline): 4 of 6
survivor count (dose: 37.0 mg/kg/injection, schedule: Q04DX003 (ip), vehicle: saline): 6 of 6
survivor count [8]: 6 of 6
survivor count (dose: 75.0 mg/kg/injection, schedule: Q01DX009 (ip), vehicle: saline): 4 of 6
survivor count (dose: 75.0 mg/kg/injection, schedule: Q04DX003 (ip), vehicle: saline): 5 of 6
survivor count (dose: 113.0 mg/kg/injection, schedule: Q01DX009 (ip), vehicle: saline): 2 of 6
survivor count (dose: 300.0 mg/kg/injection, schedule: Q01DX001 (ip), vehicle: saline): 1 of 6

CN=C1CN(O)C(c2ccccc2)=c2cc(Cl)ccc2=N1
survivor count (dose: 400.0 mg/kg/injection, schedule: Q01DX001 (ip), vehicle: saline): 0 of 6
survivor count (dose: 400.0 mg/kg/injection, schedule: Q01DX009 (ip), vehicle: acetone): 0 of 6
survivor count [4]: 0 of 4

CCCC(O)(CC)CCC
survivor count (dose: 400.0 mg/kg/injection, schedule: Q04DX003 (ip), vehicle: saline with Tween-80): 3 of 6

Ic1ncnc2nc[nH]c12
T/C (dose: 132.0 mg/kg/injection, schedule: Q01DX009 (ip), vehicle: Klucel (hydroxypropylcellulose) (HPC)): 130 % of control
T/C [9]: 131 % of control
T/C [3]: 128 % of control
T/C (dose: 300.0 mg/kg/injection, schedule: Q01DX009 (ip), vehicle: saline): 143 % of control
survivor count [5]: 0 of 6
survivor count (dose: 500.0 mg/kg/injection, schedule: Q01DX Z (ip), vehicle: carboxymethylcellulose (CMC)): 3 of 6
